Paper PMC10969620
Results are given in words; binding and its absence hold for the method and conditions named. Binding can be weak; no strength is given. Tags and fused reporters may be left off the sequences shown.

Target: T1, untagged CD30 ligand isoform 1 (human) (UniProt P32971)
T1 sequence: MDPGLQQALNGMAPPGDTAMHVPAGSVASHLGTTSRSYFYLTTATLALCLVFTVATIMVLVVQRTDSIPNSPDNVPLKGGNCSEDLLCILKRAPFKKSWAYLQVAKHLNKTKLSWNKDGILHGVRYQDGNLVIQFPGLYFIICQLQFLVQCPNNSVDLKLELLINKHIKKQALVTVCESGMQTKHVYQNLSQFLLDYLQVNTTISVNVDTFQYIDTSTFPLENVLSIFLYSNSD
Test: antibody sandwich plate-based assay (Meso Scale electrochemiluminescence); Iso1-specific anti-CD30L antibody coated for capture; lysates of HEK cells expressing Iso1 with or without Iso2-FLAG, or Iso2-FLAG alone; anti-FLAG detection

binding: binds
Substance: FLAG-tagged CD30 ligand isoform 2 (human)
